# Measured values reported in the supplement of paper PMC8728848.
# The list shows a part of the results.
# B1: TAL6-4LysM (Trichoderma atroviride) (protein)
# chain: AADSIPSISPTGIITPTPTQSGMVSNCNKFYDVHSNDGCSAIASSQHVDLSSLYKWNPAIKTDCSGLQASVYVCIGILTTSMSTTSKLPTTTSKPSTTSKPPTGITTPTPTQSGMVKNCNKFYDVHSGDGCSAIASSQKVNLSSFYLWNPAVKTDCSGLQASVFVCIGTLTTSMSTTTSKLPTTTSKPSTTSKPPTGIITPTPTQNGMVKNCNKFYDVHSGDGCSAIASSQKVNLSSFYLWNPAVKTDCSGLQASVFVCVGTATTTTAAGITTPTPTQSGMVSGCNKFYDVHAGDGCSAIASSQKIALSSLYKWNPAVKTDCSGLQASVYICIGVGNAAAARVTGALEQKLISEEDLNSAVDHHHHHH
# Tests used:
# Experiment in all cases: glycan array binding signal (z-score within array); higher = stronger binding
# Details in all cases: glycan notation: IUPAC condensed, linker removed
# Gal(b1-4)Glc = molecular target: Gal(b1-4)Glc
# Method in brief: (§1)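 Columns mapping to the same glycan were averaged after glycan names were converted to IUPAC-condensed notation. The data come from 3228 arrays in the Consortium for Functional Glycomics database, limited to those with an available protein sequence. Binding is reported as a within-array Z-score averaged across arrays of one protein sequence and across linkers.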
# Gal(b1-4)Glc6S = molecular target: Gal(b1-4)Glc6S
# Method in brief: as §1
# Gal(b1-4)GlcNAc = molecular target: Gal(b1-4)GlcNAc
# Method in brief: as §1
# [1] = molecular target: Gal(b1-4)GlcNAc(a1-6)Gal(b1-4)GlcNAc
# Method in brief: as §1
# Gal(b1-4)GlcNAc(b1-2)Man = molecular target: Gal(b1-4)GlcNAc(b1-2)Man
# Method in brief: as §1
# [2] = molecular target: Gal(b1-4)GlcNAc(b1-2)Man(a1-3)Man(b1-4)GlcNAc(b1-4)GlcNAc
# Method in brief: as §1
# [3] = molecular target: Gal(b1-4)GlcNAc(b1-2)Man(a1-3)[Gal(b1-4)GlcNAc(b1-2)Man(a1-6)]Man(b1-4)GlcNAc(b1-4)GlcNAc
# Method in brief: as §1
# [4] = molecular target: Gal(b1-4)GlcNAc(b1-2)Man(a1-3)[Gal(b1-4)GlcNAc(b1-2)Man(a1-6)]Man(b1-4)GlcNAc(b1-4)[Fuc(a1-6)]GlcNAc
# Method in brief: as §1
# [5] = molecular target: Gal(b1-4)GlcNAc(b1-2)Man(a1-3)[Gal(b1-4)GlcNAc(b1-2)Man(a1-6)][Gal(b1-4)GlcNAc(b1-4)]Man(b1-4)GlcNAc(b1-4)[Fuc(a1-6)]GlcNAc
# Method in brief: as §1
# [6] = molecular target: Gal(b1-4)GlcNAc(b1-2)Man(a1-3)[Gal(b1-4)GlcNAc(b1-2)Man(a1-6)][GlcNAc(b1-4)]Man(b1-4)GlcNAc(b1-4)[Fuc(a1-6)]GlcNAc
# Method in brief: as §1
# [7] = molecular target: Gal(b1-4)GlcNAc(b1-2)Man(a1-3)[GlcNAc(b1-2)Man(a1-6)]Man(b1-4)GlcNAc(b1-4)GlcNAc
# Method in brief: as §1
# [8] = molecular target: Gal(b1-4)GlcNAc(b1-2)Man(a1-3)[GlcNAc(b1-4)][Gal(b1-4)GlcNAc(b1-2)Man(a1-6)]Man(b1-4)GlcNAc(b1-4)GlcNAc
# Method in brief: as §1
# [9] = molecular target: Gal(b1-4)GlcNAc(b1-2)Man(a1-3)[Man(a1-6)]Man(b1-4)GlcNAc(b1-4)GlcNAc
# Method in brief: as §1
# [10] = molecular target: Gal(b1-4)GlcNAc(b1-2)Man(a1-6)Man(b1-4)GlcNAc(b1-4)GlcNAc
# Method in brief: as §1
# [11] = molecular target: Gal(b1-4)GlcNAc(b1-2)Man(a1-6)[GlcNAc(b1-2)Man(a1-3)]Man(b1-4)GlcNAc(b1-4)GlcNAc
# Method in brief: as §1
# [12] = molecular target: Gal(b1-4)GlcNAc(b1-2)Man(a1-6)[Man(a1-3)]Man(b1-4)GlcNAc(b1-4)GlcNAc
# Method in brief: as §1
# [13] = molecular target: Gal(b1-4)GlcNAc(b1-2)[Gal(b1-4)GlcNAc(b1-4)]Man(a1-3)[Gal(b1-4)GlcNAc(b1-2)Man(a1-6)]Man(b1-4)GlcNAc(b1-4)GlcNAc
# Method in brief: as §1
# [14] = molecular target: Gal(b1-4)GlcNAc(b1-2)[Gal(b1-4)GlcNAc(b1-4)]Man(a1-3)[Gal(b1-4)GlcNAc(b1-2)[Gal(b1-4)GlcNAc(b1-6)]Man(a1-6)]Man(b1-4)GlcNAc(b1-4)GlcNAc
# Method in brief: as §1
# [15] = molecular target: Gal(b1-4)GlcNAc(b1-2)[Gal(b1-4)GlcNAc(b1-4)]Man(a1-3)[GlcNAc(b1-4)][Gal(b1-4)GlcNAc(b1-2)Man(a1-6)]Man(b1-4)GlcNAc(b1-4)GlcNAc
# Method in brief: as §1
# [16] = molecular target: Gal(b1-4)GlcNAc(b1-2)[Gal(b1-4)GlcNAc(b1-4)]Man(a1-3)[GlcNAc(b1-4)][Gal(b1-4)GlcNAc(b1-2)[Gal(b1-4)GlcNAc(b1-6)]Man(a1-6)]Man(b1-4)GlcNAc(b1-4)GlcNAc
# Method in brief: as §1
# [17] = molecular target: Gal(b1-4)GlcNAc(b1-2)[Gal(b1-4)GlcNAc(b1-6)]Man(a1-6)[Gal(b1-4)GlcNAc(b1-2)Man(a1-3)]Man(b1-4)GlcNAc(b1-4)GlcNAc
# Method in brief: as §1
# [18] = molecular target: Gal(b1-4)GlcNAc(b1-2)[Gal(b1-4)GlcNAc(b1-6)]Man(a1-6)[Gal(b1-4)GlcNAc(b1-2)Man(a1-3)]Man(b1-4)GlcNAc(b1-4)[Fuc(a1-6)]GlcNAc
# Method in brief: as §1
# [19] = molecular target: Gal(b1-4)GlcNAc(b1-2)[Gal(b1-4)GlcNAc(b1-6)]Man(a1-6)[GlcNAc(b1-4)][Gal(b1-4)GlcNAc(b1-2)Man(a1-3)]Man(b1-4)GlcNAc(b1-4)GlcNAc
# Method in brief: as §1
# [20] = molecular target: Gal(b1-4)GlcNAc(b1-2)[Gal(b1-4)GlcNAc(b1-6)]Man(a1-6)[GlcNAc(b1-4)][Gal(b1-4)GlcNAc(b1-2)[Gal(b1-4)GlcNAc(b1-4)]Man(a1-3)]Man(b1-4)GlcNAc(b1-4)[Fuc(a1-6)]GlcNAc
# Method in brief: as §1
# [21] = molecular target: Gal(b1-4)GlcNAc(b1-3)Gal(b1-3)GalNAc
# Method in brief: as §1
# [22] = molecular target: Gal(b1-4)GlcNAc(b1-3)Gal(b1-3)GlcNAc
# Method in brief: as §1
# [23] = molecular target: Gal(b1-4)GlcNAc(b1-3)Gal(b1-4)Glc
# Method in brief: as §1
# [24] = molecular target: Gal(b1-4)GlcNAc(b1-3)Gal(b1-4)GlcNAc
# Method in brief: as §1
# [25] = molecular target: Gal(b1-4)GlcNAc(b1-3)Gal(b1-4)GlcNAc(b1-2)Man(a1-3)[Gal(b1-4)GlcNAc(b1-3)Gal(b1-4)GlcNAc(b1-2)Man(a1-6)]Man(b1-4)GlcNAc(b1-4)GlcNAc
# Method in brief: as §1
# [26] = molecular target: Gal(b1-4)GlcNAc(b1-3)Gal(b1-4)GlcNAc(b1-2)Man(a1-3)[Gal(b1-4)GlcNAc(b1-3)Gal(b1-4)GlcNAc(b1-2)Man(a1-6)]Man(b1-4)GlcNAc(b1-4)[Fuc(a1-6)]GlcNAc
# Method in brief: as §1
# [27] = molecular target: Gal(b1-4)GlcNAc(b1-3)Gal(b1-4)GlcNAc(b1-2)[Gal(b1-4)GlcNAc(b1-3)Gal(b1-4)GlcNAc(b1-6)]Man(a1-6)[Gal(b1-4)GlcNAc(b1-3)Gal(b1-4)GlcNAc(b1-2)Man(a1-3)]Man(b1-4)GlcNAc(b1-4)GlcNAc
# Method in brief: as §1
# [28] = molecular target: Gal(b1-4)GlcNAc(b1-3)Gal(b1-4)GlcNAc(b1-2)[Gal(b1-4)GlcNAc(b1-3)Gal(b1-4)GlcNAc(b1-6)]Man(a1-6)[Gal(b1-4)GlcNAc(b1-3)Gal(b1-4)GlcNAc(b1-2)Man(a1-3)]Man(b1-4)GlcNAc(b1-4)[Fuc(a1-6)]GlcNAc
# Method in brief: as §1
# [29] = molecular target: Gal(b1-4)GlcNAc(b1-3)Gal(b1-4)GlcNAc(b1-3)Gal(b1-4)GlcNAc
# Method in brief: as §1
# [30] = molecular target: Gal(b1-4)GlcNAc(b1-3)Gal(b1-4)GlcNAc(b1-3)Gal(b1-4)GlcNAc(b1-2)Man(a1-3)[Gal(b1-4)GlcNAc(b1-3)Gal(b1-4)GlcNAc(b1-3)Gal(b1-4)GlcNAc(b1-2)Man(a1-6)]Man(b1-4)GlcNAc(b1-4)GlcNAc
# Method in brief: as §1
# [31] = molecular target: Gal(b1-4)GlcNAc(b1-3)Gal(b1-4)GlcNAc(b1-3)Gal(b1-4)GlcNAc(b1-2)Man(a1-3)[Gal(b1-4)GlcNAc(b1-3)Gal(b1-4)GlcNAc(b1-3)Gal(b1-4)GlcNAc(b1-2)Man(a1-6)]Man(b1-4)GlcNAc(b1-4)[Fuc(a1-6)]GlcNAc
# Method in brief: as §1
# [32] = molecular target: Gal(b1-4)GlcNAc(b1-3)Gal(b1-4)GlcNAc(b1-3)Gal(b1-4)GlcNAc(b1-2)[Gal(b1-4)GlcNAc(b1-3)Gal(b1-4)GlcNAc(b1-3)Gal(b1-4)GlcNAc(b1-6)]Man(a1-6)[Gal(b1-4)GlcNAc(b1-3)Gal(b1-4)GlcNAc(b1-3)Gal(b1-4)GlcNAc(b1-2)Man(a1-3)]Man(b1-4)GlcNAc(b1-4)[Fuc(a1-6)]GlcNAc
# Method in brief: as §1
# [33] = molecular target: Gal(b1-4)GlcNAc(b1-3)Gal(b1-4)GlcNAc(b1-3)Gal(b1-4)GlcNAc(b1-3)Gal(b1-4)GlcNAc(b1-2)Man(a1-3)[Gal(b1-4)GlcNAc(b1-3)Gal(b1-4)GlcNAc(b1-3)Gal(b1-4)GlcNAc(b1-3)Gal(b1-4)GlcNAc(b1-2)Man(a1-6)]Man(b1-4)GlcNAc(b1-4)GlcNAc
# Method in brief: as §1
binder,measurement,setting,value
B1,glycan array binding signal (z-score),Gal(b1-4)Glc,-0.134
same,glycan array binding signal (z-score),Gal(b1-4)Glc6S,-0.334
same,glycan array binding signal (z-score),Gal(b1-4)GlcNAc,0.514
same,glycan array binding signal (z-score),[1],0.444
same,glycan array binding signal (z-score),Gal(b1-4)GlcNAc(b1-2)Man,0.361
same,glycan array binding signal (z-score),[2],0.99
same,glycan array binding signal (z-score),[3],0.345
same,glycan array binding signal (z-score),[4],0.685
same,glycan array binding signal (z-score),[5],-0.638
same,glycan array binding signal (z-score),[6],-0.903
same,glycan array binding signal (z-score),[7],0.96
same,glycan array binding signal (z-score),[8],-0.532
same,glycan array binding signal (z-score),[9],0.206
same,glycan array binding signal (z-score),[10],1.1
same,glycan array binding signal (z-score),[11],0.194
same,glycan array binding signal (z-score),[12],-0.256
same,glycan array binding signal (z-score),[13],3.53
same,glycan array binding signal (z-score),[14],-1.01
same,glycan array binding signal (z-score),[15],-0.088
same,glycan array binding signal (z-score),[16],-0.822
same,glycan array binding signal (z-score),[17],-0.699
same,glycan array binding signal (z-score),[18],0.291
same,glycan array binding signal (z-score),[19],-1.06
same,glycan array binding signal (z-score),[20],-0.429
same,glycan array binding signal (z-score),[21],-0.484
same,glycan array binding signal (z-score),[22],-0.823
same,glycan array binding signal (z-score),[23],-0.779
same,glycan array binding signal (z-score),[24],0.031
same,glycan array binding signal (z-score),[25],0.103
same,glycan array binding signal (z-score),[26],-0.014
same,glycan array binding signal (z-score),[27],-0.104
same,glycan array binding signal (z-score),[28],0.236
same,glycan array binding signal (z-score),[29],-0.692
same,glycan array binding signal (z-score),[30],-0.372
same,glycan array binding signal (z-score),[31],0.792
same,glycan array binding signal (z-score),[32],-0.238
same,glycan array binding signal (z-score),[33],-1.34

# 2 entries from above, with bars between the fields.
binder | measurement | setting | value
B1 | glycan array binding signal (z-score) | [15] | -0.088
same | glycan array binding signal (z-score) | [16] | -0.822
